Data: paper PMC12669776
Results are given in words; binding and its absence hold for the method and conditions named. Binding seen in cells or lysates may run through a third protein. Some results given as binding are weak or reduced against the parent protein; the word gives no strength.

T1: JARID2 (endogenous, mouse embryonic stem cells) (mouse (endogenous in E14 ESCs)), Q62315
T1 chain: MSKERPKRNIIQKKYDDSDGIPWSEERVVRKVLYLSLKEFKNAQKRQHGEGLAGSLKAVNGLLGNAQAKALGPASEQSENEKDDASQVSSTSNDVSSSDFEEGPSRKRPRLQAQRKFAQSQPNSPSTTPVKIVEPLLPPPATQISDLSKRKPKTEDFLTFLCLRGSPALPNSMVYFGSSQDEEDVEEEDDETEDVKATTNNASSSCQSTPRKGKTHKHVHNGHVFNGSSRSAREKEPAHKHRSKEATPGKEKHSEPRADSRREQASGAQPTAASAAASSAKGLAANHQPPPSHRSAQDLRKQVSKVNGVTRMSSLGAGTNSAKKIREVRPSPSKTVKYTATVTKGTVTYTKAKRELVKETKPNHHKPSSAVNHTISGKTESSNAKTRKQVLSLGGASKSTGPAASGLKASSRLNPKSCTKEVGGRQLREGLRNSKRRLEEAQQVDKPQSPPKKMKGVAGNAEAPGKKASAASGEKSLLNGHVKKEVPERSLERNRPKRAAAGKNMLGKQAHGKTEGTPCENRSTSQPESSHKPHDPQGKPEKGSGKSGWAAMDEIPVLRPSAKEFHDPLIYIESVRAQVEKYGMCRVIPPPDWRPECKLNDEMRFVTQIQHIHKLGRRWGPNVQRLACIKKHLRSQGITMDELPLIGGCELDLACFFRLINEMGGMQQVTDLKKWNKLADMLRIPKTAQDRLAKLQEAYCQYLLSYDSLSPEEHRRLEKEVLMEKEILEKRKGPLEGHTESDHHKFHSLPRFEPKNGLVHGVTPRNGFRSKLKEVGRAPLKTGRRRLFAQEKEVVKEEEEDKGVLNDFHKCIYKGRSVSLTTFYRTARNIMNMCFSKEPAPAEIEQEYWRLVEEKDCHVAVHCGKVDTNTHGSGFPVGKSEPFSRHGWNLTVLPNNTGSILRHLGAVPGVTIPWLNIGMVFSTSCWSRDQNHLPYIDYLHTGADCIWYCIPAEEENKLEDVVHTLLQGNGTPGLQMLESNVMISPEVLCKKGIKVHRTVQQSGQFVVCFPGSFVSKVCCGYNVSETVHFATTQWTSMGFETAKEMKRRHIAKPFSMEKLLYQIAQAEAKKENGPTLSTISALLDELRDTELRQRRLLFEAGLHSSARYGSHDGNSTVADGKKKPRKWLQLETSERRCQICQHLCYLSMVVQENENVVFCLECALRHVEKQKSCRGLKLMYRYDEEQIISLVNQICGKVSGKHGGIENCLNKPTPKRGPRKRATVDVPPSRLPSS

B1: MTF2 (endogenous, mouse embryonic stem cells), Q02395 1-593 (protein)
chain: MRDSTGAGNSLVHKRSPLRRNQKTSASLNKLSLQDGHKAKKPACKFEEGQDVLARWSDGLFYLGTIKKINILKQSCFIIFEDSSKSWVLWKDIQTGATGSGEMVCTICQEEYSEAPNEMVICDKCGQGYHQLCHTPHIDSSVIDSDEKWLCRQCVFATTTKRGGALKKGPNAKALQVMKQTLPYSVADLEWDAGHKTNVQQCYCYCGGPGDWYLKMLQCCKCKQWFHEACVQCLQKPMLFGDRFYTFICSVCSSGPEYLKRLPLQWVDIAHLCLYNLSVIHKKKYFDSELELMTYINENWDRLHPGELADTPKSERYEHVLEALNDYKTMFMSGKEIKKKKHLFGLRIRVPPVPPNVAFKAEKEPEGTSHEFKIKGRKASKPTSDSREVSNGIEKKGKKKSVGRPPGPYTRKMIQKTAELPLDKESVSENPTLDLPCSIGRTEGIAHSSNTSDVDLTGASSANETTSASISRHCGLSDSRKRTRTGRSWPAAIPHLRRRRGRLPRRALQTQNSEVVKDDEGKEDYQFEELNTEILNNLADQELQLNHLKNSITSYFGAAGRIACGEKYRVLARRVTLDGKVQYLVEWEGATAS
B2: JARID2 (endogenous, mouse embryonic stem cells), Q62315 1-1234 (protein)
chain: T1 chain
B3: AEBP2-Long (endogenous, mouse embryonic stem cells), Q9Z248-1 1-504 (protein)
chain: MAAALADMADLEELSRLSPLSPGSPGPAARGRAEPPEEEEEEDDEEAEAEAVAALLLNGGAGGGAGGGEAETMSEPSPESASQAGGDEDEDEEDDEDEGSSSGGAEEESSAESLVGSSSGGCSGDETRSLSPGAASSSSGDGDGKEGLEEPKGPRGGPGGPGSSGGGSSSSSVVSSGGDEGYGTGGGGSSATSGGRRGSLEMSSDGEPLSRMDSEDSISSTLMDIDSTISSGRSTPAMMNGQGSTTASSKHIAYNCCWDQCQACFNSSPDLADHIRSIHVDGQRGGVFVCLWKGCKVYNTPSTSQSWLQRHMLTHSGDKPFKCVVGGCNASFASQGGLARHVPTHFSQQNSSKVSSQPKAKEESPSKAGMNKRRKLKNKRRRSLPRPHDFFDAQTLDAIRHRAICFNLSAHIESLGKGHSVVFHSTVIAKRKEESGKIKLLLHWMPEDILPDVWVNESERHQLKTKVVHLSKLPKDTALLLDPNIYRTMPQKRLKRFDILNFPR

Key:
[1] = target: T1, JARID2 (endogenous, mouse embryonic …); test: co-IP; endogenous co-IPs of EZH2 and of JARID2 from nuclear extracts of WT, LKO, SKO and Aebp2 KO mouse ESC lines; Benzonase; Protein G Dynabeads; Western blot; details: remark: other sources report otherwise
[2] = target: EZH2 (endogenous, mouse embryonic stem cells) (mouse (endogenous in E14 ESCs)), Q61188; test: as above; details: remark: other sources report otherwise

Row | Binder | binding [1] | binding [2]
1 | B1 | binds | 
2 | B2 |  | binds
3 | B3 | binds | 
